Measurements: PubChem BioAssay AID328 (DTP/NCI, 2004)
The list does not hold the whole screen: it gathers tests that were run many times, whatever their T/C, doses with no T/C, and many T/C values between a quarter and a half above the control. Further doses and runs are listed elsewhere. T/C gives the treated animals as a percentage of the vehicle group. Some doses have a count of surviving animals in place of a T/C: the source files T/C as zero there, which appears to mark a toxic dose or a test without result, not a measured value. Some doses without a T/C left all or most animals alive at the check, yet need not have been tolerated: survival well below the control is almost never listed, so the zero probably covers shortened survival too. Counts of survivors are from the toxicity check (mostly the fifth day) where no day follows; animals may have died later. Schedule codes are those of the source, read here as Q, the interval in days (D) or hours (H), X, the number of doses. For survival time, the PubChem record calls one and a half times the control and up active, and a quarter to a half above the control has no call in these data; cut-offs in other NCI protocols can differ. Some entries hold several experiments; the values are given in rising order. Some T/C values carry the count of animals alive at the toxicity check (mostly the fifth day); without a count, all were alive then.

System: BDF1 mice, P388 leukemia ip, median survival T/C
Assay: NCI In Vivo Anticancer Drug Screen. Data for tumor model P388 Leukemia (intraperitoneal) in B6D2F1 (BDF1) mice
Details: T/C endpoint: median survival time, higher T/C = longer survival
In short: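 Each value expresses how treatment altered survival: treated-mouse outcome over vehicle-mouse outcome, both groups bearing the transplanted tumour.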

[1] = dose: 50.0 mg/kg/injection, schedule: Q01DX009 (ip), vehicle: saline with Tween-80
[2] = dose: 400.0 mg/kg/injection, schedule: Q04DX003 (ip), vehicle: water
[3] = dose: 100.0 mg/kg/injection, schedule: Q01DX009 (ip), vehicle: saline with Tween-80
[4] = dose: 200.0 mg/kg/injection, schedule: Q01DX009 (ip), vehicle: saline with Tween-80
[5] = dose: 200.0 mg/kg/injection, schedule: Q01DX009 (ip), vehicle: Klucel (hydroxypropylcellulose) (HPC)
[6] = dose: 400.0 mg/kg/injection, schedule: Q01DX009 (ip), vehicle: saline with Tween-80
[7] = dose: 50.0 mg/kg/injection, schedule: Q01DX009 (ip), vehicle: saline
[8] = dose: 100.0 mg/kg/injection, schedule: Q01DX009 (ip), vehicle: saline
[9] = dose: 100.0 mg/kg/injection, schedule: Q01DX009 (ip), vehicle: Klucel (hydroxypropylcellulose) (HPC)
[10] = dose: 200.0 mg/kg/injection, schedule: Q04DX003 (ip), vehicle: saline with Tween-80
[11] = dose: 12.5 mg/kg/injection, schedule: Q01DX009 (ip), vehicle: saline with Tween-80

`O=C1c2cc(O)c(O)cc2O[C@H](c2ccc(O)c(O)c2)[C@H]1O` was tested, and the T/C (dose: 30.0 mg/kg/injection, schedule: Q01DX009 (ip), vehicle: saline) was 127 % of control, the T/C (dose: 125.0 mg/kg/injection, schedule: Q01DX009 (ip), vehicle: saline) was 127 % of control and the T/C (dose: 250.0 mg/kg/injection, schedule: Q01DX009 (ip), vehicle: saline) was 142 % of control.

For `CC(=O)NC1=C(N2CC2C)C(=O)C(NC(C)=O)=C(N2CC2C)C1=O` (stereo unspecified), the T/C (dose: 2.5 mg/kg/injection, schedule: Q01DX009 (ip), vehicle: saline) was 125 and 142 % of control, the survivor count (dose: 10.0 mg/kg/injection, schedule: Q01DX009 (ip), vehicle: saline) was 6 of 6 and the T/C (dose: 10.0 mg/kg/injection, schedule: Q04DX003 (ip), vehicle: saline) was 131 % of control. The T/C (dose: 12.5 mg/kg/injection, schedule: Q04DX003 (ip), vehicle: saline) was 136 % of control, the T/C (dose: 25.0 mg/kg/injection, schedule: Q04DX003 (ip), vehicle: saline) was 127 % of control and the T/C (dose: 37.5 mg/kg/injection, schedule: Q04DX003 (ip), vehicle: saline) was 130 % of control. The survivor count (dose: 100.0 mg/kg/injection, schedule: Q04DX003 (ip), vehicle: saline) was 5 of 6 and the survivor count (dose: 200.0 mg/kg/injection, schedule: Q04DX003 (ip), vehicle: saline) was 3 of 6.

With `CSc1nc([N+](=O)[O-])c2cnccn12` the survivor count [1] was 2 of 6 and the survivor count (dose: 100.0 mg/kg/injection, schedule: Q04DX003 (ip), vehicle: saline with Tween-80) was 1 of 6.

With `O=C(c1ccccc1)C(c1ccccc1)C(O)(C(F)(F)F)C(F)(F)F` (stereo unspecified) the T/C (dose: 400.0 mg/kg/injection, schedule: Q01DX001 (ip), vehicle: saline with Tween-80) was 127 % of control.

For `CC[NH-].CC[NH-].[I][Pt+2][I]`, the T/C (dose: 12.5 mg/kg/injection, schedule: Q01DX009 (ip), vehicle: saline) was 142 % of control.

For `COc1ccc(CCO)cc1OC`, the survivor count [2] was 6 of 6.

`C/C(=N\NC(=S)N(C)C)c1ccccn1` was tested, and the survivor count (dose: 6.25 mg/kg/injection, schedule: Q01DX009 (ip), vehicle: saline with Tween-80) was 6 of 6, the survivor count [1] was 1 of 6 and the survivor count [3] was 0 of 6. For the same compound, the survivor count [4] was 0 of 6.

In the case of `O=c1ccc(=O)c2c(=O)c3ccccc3c(=O)c1=2`, the survivor count [5] is reported as 5 of 6 and the survivor count (dose: 400.0 mg/kg/injection, schedule: Q04DX003 (ip), vehicle: Klucel (hydroxypropylcellulose) (HPC)) is reported as 4 of 6.

For `NC(=O)n1cccn1`, the survivor count (dose: 125.0 mg/kg/injection, schedule: Q01DX010 (ip), vehicle: water) was 6 of 6 and the survivor count (dose: 250.0 mg/kg/injection, schedule: Q01DX010 (ip), vehicle: water) was 3 of 6.

With `CNC(=O)OCc1c(-c2ccccc2)nc2sccn12` the T/C (dose: 50.0 mg/kg/injection, schedule: Q01DX001 (ip), vehicle: Klucel (hydroxypropylcellulose) (HPC)) was 126 % of control.

In the case of `O=S1(=O)CCCO1`, the survivor count [4] is reported as 4 of 6.

With `C/C(=C\C(=O)O)CC(=O)O` the survivor count [2] was 0 of 6.

For `CCOC(=O)CC(=O)N/N=C(/C)C(=O)OCC`, the survivor count [6] was 4 of 6.

With `NC(Cc1cccc(NP(=S)(N2CC2)N2CC2)c1)C(=O)O` (stereo unspecified) the T/C (dose: 75.0 mg/kg/injection, schedule: Q04DX003 (ip), vehicle: saline) was 145 % of control.

With `CC(=O)[O][Hg][c]1c(C)c(C)cc(C)c1C` the survivor count [7] was 1 of 6 and the survivor count [8] was 0 of 6.

In the case of `CCOC(=O)/C(C#N)=N\O`, the survivor count [8] is reported as 2 of 6.

In the case of `CCN(CC)c1ccc(C2NC(=O)c3ccccc3N2)cc1` (stereo unspecified), the survivor count [9] is reported as 6 of 6, the survivor count [5] is reported as 5 of 6 and the survivor count (dose: 400.0 mg/kg/injection, schedule: Q01DX009 (ip), vehicle: Klucel (hydroxypropylcellulose) (HPC)) is reported as 0 of 6.

With `CN(C)c1ccc(C(=C2C=CC(=[N+](C)C)C=C2)c2ccccc2Cl)cc1` the T/C (dose: 10.0 mg/kg/injection, schedule: Q01DX010 (ip), vehicle: saline) was 125 % of control, the survivor count (dose: 20.0 mg/kg/injection, schedule: Q01DX010 (ip), vehicle: saline) was 6 of 6 and the survivor count (dose: 40.0 mg/kg/injection, schedule: Q01DX010 (ip), vehicle: saline) was 2 of 6.

In the case of `OCCOc1c(Cl)c(Cl)c(Cl)c(Cl)c1Cl`, the survivor count [10] is reported as 5 of 6.

`N#CC1(C#N)C(c2ccccc2)C1(C#N)C#N` was tested, and the T/C (dose: 1.33 mg/kg/injection, schedule: Q01DX009 (ip), vehicle: saline) was 130 % of control, the T/C (dose: 4.0 mg/kg/injection, schedule: Q01DX009 (ip), vehicle: saline with Tween-80) was 127 and 130 % of control and the survivor count (dose: 4.0 mg/kg/injection, schedule: Q01DX009 (ip), vehicle: saline) was 2 of 6. The T/C (dose: 6.0 mg/kg/injection, schedule: Q01DX009 (ip), vehicle: saline with Tween-80) was 127 % of control, the survivor count [11] was 4 of 6 and the survivor count (dose: 25.0 mg/kg/injection, schedule: Q01DX009 (ip), vehicle: saline with Tween-80) was 4 of 6.

In the case of `CC(C)(C#N)Nc1ccccc1`, the survivor count [11] is reported as 2 of 6.

In the case of `COC[C@H]1OC(=O)c2coc3c2[C@@]1(C)C1=C(C3=O)[C@@H]2CCC(=O)[C@@]2(C)C[C@H]1OC(C)=O`, the T/C (dose: 1.25 mg/kg/injection, schedule: Q01DX009 (ip), vehicle: saline) is reported as 126 % of control.

With `CC(=O)NC1CCCN(O)C(=O)/C=C(/C)CCOC(=O)C(NC(C)=O)CCCN(O)C(=O)/C=C(/C)CCOC(=O)C(NC(C)=O)CCCN(O)C(=O)/C=C(/C)CCOC1=O.[Fe]` (stereo unspecified) the survivor count [9] was 6 of 6.

`C=CCOc1ccccc1N/N=C(\Cl)C(=O)OCC` was tested, and the T/C [3] was 135 % of control [5 of 6 alive] and the survivor count [4] was 0 of 6.

For `CC(=O)OC1CC2CC1C1C3C=CC(C3)C21` (stereo unspecified), the survivor count [4] was 5 of 6 and the survivor count [6] was 2 of 6.

With `O=[N+]([O-])C(Cl)(Cl)C(Cl)(Cl)[N+](=O)[O-]` the survivor count (dose: 10.0 mg/kg/injection, schedule: Q04DX003 (ip), vehicle: other) was 4 of 6.

With `[Cl][Al]([Cl])[Cl]` the survivor count [3] was 3 of 6, the survivor count [4] was 1 of 6 and the survivor count [6] was 1 of 6.

For `ClCc1ccncc1`, the survivor count (dose: 400.0 mg/kg/injection, schedule: Q04DX003 (ip), vehicle: saline) was 1 of 6.

`CC(=O)C(C)(CCC#N)CCC#N` was tested, and the survivor count [10] was 0 of 6.

`CC[CH2][Pb]([CH2]CC)([CH2]CC)[O]C(=O)C(F)(F)F` was tested, and the survivor count (dose: 9.0 mg/kg/injection, schedule: Q01DX009 (ip), vehicle: Klucel (hydroxypropylcellulose) (HPC)) was 6 of 6, the T/C (dose: 9.0 mg/kg/injection, schedule: Q01DX009 (ip), vehicle: saline with Tween-80) was 130 % of control and the survivor count (dose: 18.0 mg/kg/injection, schedule: Q01DX009 (ip), vehicle: Klucel (hydroxypropylcellulose) (HPC)) was 1 of 6. For the same compound, the survivor count (dose: 18.0 mg/kg/injection, schedule: Q01DX009 (ip), vehicle: saline with Tween-80) was 0 of 6.

With `CCOC(=O)CC1=NN=C(N)SC1` the T/C [7] was 128 % of control and the survivor count (dose: 200.0 mg/kg/injection, schedule: Q01DX009 (ip), vehicle: saline) was 4 of 6.

`O=[N+]([O-])/C=C/c1ccc2ccccc2c1` was tested, and the T/C (dose: 9.38 mg/kg/injection, schedule: Q01DX009 (ip), vehicle: saline with Tween-80) was 127 % of control, the T/C (dose: 18.75 mg/kg/injection, schedule: Q01DX009 (ip), vehicle: saline with Tween-80) was 127 % of control and the T/C (dose: 37.5 mg/kg/injection, schedule: Q01DX009 (ip), vehicle: saline with Tween-80) was 131 % of control [5 of 6 alive]. For the same compound, the T/C (dose: 200.0 mg/kg/injection, schedule: Q01DX009 (ip), vehicle: saline sonified) was 130 % of control, the T/C [10] was 125 % of control and the T/C (dose: 400.0 mg/kg/injection, schedule: Q01DX009 (ip), vehicle: saline sonified) was 135 % of control.

For `NC(Cc1ccc(O)c(I)c1)C(=O)O` (stereo unspecified), the survivor count (dose: 400.0 mg/kg/injection, schedule: Q01DX009 (ip), vehicle: saline) was 3 of 6.
